These are yes or no findings as the source states them, for the method shown. In cells and extracts the contact can be indirect. Some entries that bind do so weakly or less than the wild type. Sequences can lack the tags named with a protein.
Biological target: T1, HA-VDAC2-WT (pCDNA3) (UniProt P45880)
T1 sequence: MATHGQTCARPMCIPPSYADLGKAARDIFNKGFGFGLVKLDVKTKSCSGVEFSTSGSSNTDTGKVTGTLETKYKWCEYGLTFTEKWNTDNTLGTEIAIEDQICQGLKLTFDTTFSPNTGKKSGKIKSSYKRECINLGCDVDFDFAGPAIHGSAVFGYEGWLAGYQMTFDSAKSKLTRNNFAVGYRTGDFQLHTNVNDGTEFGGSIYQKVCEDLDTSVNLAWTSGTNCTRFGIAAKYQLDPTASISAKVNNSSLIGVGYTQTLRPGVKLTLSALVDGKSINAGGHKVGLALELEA
Assay: co-IP; HA-IP (anti-HA agarose) from HEK293T cells transfected with the indicated constructs, immunoblot; Figures 3Q, 4H, 4J

Protein sequences, listed by entry. Tags and fused reporters are not part of them. Residues count along the entry.
UniProt P38646, residues 47-679: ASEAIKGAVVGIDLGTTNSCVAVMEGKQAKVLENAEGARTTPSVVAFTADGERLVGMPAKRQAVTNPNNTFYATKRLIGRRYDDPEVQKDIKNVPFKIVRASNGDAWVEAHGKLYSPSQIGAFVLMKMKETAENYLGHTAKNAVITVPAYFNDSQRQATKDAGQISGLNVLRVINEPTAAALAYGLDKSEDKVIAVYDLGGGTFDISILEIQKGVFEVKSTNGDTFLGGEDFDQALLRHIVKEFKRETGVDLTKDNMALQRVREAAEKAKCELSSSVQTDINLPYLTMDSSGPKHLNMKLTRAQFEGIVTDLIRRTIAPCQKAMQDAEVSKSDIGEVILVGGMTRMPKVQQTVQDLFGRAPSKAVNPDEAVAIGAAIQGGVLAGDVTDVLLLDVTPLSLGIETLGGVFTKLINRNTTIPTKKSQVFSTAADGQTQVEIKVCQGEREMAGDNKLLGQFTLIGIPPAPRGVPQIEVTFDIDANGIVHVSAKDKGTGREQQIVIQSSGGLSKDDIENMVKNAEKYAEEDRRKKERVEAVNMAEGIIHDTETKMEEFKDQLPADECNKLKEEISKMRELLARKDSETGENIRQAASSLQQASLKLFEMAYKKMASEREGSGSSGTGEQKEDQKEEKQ

Question: With “GRP75 (construct of the experiment not stated) (from UniProt P38646 47-679)” as the substance, how does the binding read?
Answer: binds
